According to paper doi:10.1101/2021.04.22.439970:
These are yes or no findings as the source states them, for the method shown. For part of these data: Binding seen in cells or lysates may run through a third protein. Some entries that bind do so weakly or less than the wild type. One block for each molecule: values may come before it.

Amino acid sequences for entries named in this document (tags omitted). A change or cut given only in a name is not applied to a line headed by its entry.
UniProt P22515, whole entry: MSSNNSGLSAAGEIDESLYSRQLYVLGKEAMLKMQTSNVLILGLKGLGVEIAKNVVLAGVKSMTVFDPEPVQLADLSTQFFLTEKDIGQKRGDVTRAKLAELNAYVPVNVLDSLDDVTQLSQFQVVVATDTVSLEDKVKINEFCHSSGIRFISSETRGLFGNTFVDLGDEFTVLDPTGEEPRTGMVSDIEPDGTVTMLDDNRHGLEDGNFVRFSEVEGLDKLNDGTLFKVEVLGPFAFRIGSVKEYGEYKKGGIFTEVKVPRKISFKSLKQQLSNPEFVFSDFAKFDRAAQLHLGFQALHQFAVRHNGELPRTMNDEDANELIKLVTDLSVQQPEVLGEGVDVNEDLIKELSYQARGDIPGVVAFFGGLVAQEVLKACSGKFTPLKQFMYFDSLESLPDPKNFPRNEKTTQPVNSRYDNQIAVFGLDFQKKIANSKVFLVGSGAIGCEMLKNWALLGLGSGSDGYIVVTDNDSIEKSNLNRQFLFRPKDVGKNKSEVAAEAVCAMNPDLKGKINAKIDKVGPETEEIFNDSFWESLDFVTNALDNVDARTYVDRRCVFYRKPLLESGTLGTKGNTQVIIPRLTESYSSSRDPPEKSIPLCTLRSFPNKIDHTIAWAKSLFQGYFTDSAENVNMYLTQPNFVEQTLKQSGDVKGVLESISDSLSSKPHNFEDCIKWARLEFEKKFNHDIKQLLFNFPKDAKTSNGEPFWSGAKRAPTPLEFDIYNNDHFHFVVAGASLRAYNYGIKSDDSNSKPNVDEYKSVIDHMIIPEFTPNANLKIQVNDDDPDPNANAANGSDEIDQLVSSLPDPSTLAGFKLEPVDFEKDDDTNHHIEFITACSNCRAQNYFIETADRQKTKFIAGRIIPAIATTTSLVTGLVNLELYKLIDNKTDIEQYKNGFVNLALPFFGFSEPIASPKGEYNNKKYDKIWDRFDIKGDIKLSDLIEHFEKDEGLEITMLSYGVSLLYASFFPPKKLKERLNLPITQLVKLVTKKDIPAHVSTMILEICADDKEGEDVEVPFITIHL

Assays:
Uba1-myc (S. cerevisiae) [1] = target: Uba1-myc (S. cerevisiae) (UniProt P22515); experiment: immunoblot of a DTT-reducible high molecular weight
Rad6-HA (S. cerevisiae) = Rad6-HA (S. cerevisiae) (UniProt P06104); experiment: as above
[2] = target: Uba1 (endogenous) (S. cerevisiae (endogenous in yeast cells)) (UniProt P22515); experiment: as above
Uba1-myc (S. cerevisiae) [3] = target: Uba1-myc (S. cerevisiae) (UniProt P22515); experiment: co-IP
[4] = target: Rad6-FLAG (S. cerevisiae) (UniProt P06104); experiment: co-IP

- binding (Uba1-myc (S. cerevisiae) [1]): binds
Molecule: Rad6-HA (from UniProt P06104 1-172) (enzyme)

- binding (Rad6-HA (S. cerevisiae)): binds
Molecule: Uba1 (endogenous) (from UniProt P22515 1-1024) (enzyme)

- binding [2]: binds
Molecule: Rad6 (endogenous, untagged) (from UniProt P06104 1-172) (enzyme)

- binding [2]: binds
Molecule: Rad6^R11A (from UniProt P06104 1-172) (enzyme)

- binding [2]: binds
Molecule: Rad6^R7A (from UniProt P06104 1-172) (enzyme)

- binding (Uba1-myc (S. cerevisiae) [1]): no binding
- binding (Uba1-myc (S. cerevisiae) [3]): no binding
Molecule: Rad6^C88S-HA (from UniProt P06104 1-172) (enzyme)

- binding [2]: binds
Molecule: Rad6^R7A/R11A (from UniProt P06104 1-172) (enzyme)

- binding [4]: binds
B1: ribosomal protein uS3 (protein, UniProt P05750 1-240)
chain: MVALISKKRKLVADGVFYAELNEFFTRELAEEGYSGVEVRVTPTKTEVIIRATRTQDVLGENGRRINELTLLVQKRFKYAPGTIVLYAERVQDRGLSAVAQAESMKFKLLNGLAIRRAAYGVVRYVMESGAKGCEVVVSGKLRAARAKAMKFADGFLIHSGQPVNDFIDTATRHVLMRQGVLGIKVKIMRDPAKSRTGPKALPDAVTIIEPKEEEPILAPSVKDYRPAEETEAQAEPVEA
